# Reference: PubChem BioAssay AID504444 (National Center for Advancing Translational Sciences (NCATS), 2011)
# In all, about 360,000 compounds went through this assay and about 7,500 (2.1%) were called active. This list was built around the results that the source calls inconclusive (neither active nor inactive); the mix of calls is not that of the screen. Calls come from the whole dose curve; as a rule, active = well fitted inhibition curve with a large enough effect; inconclusive = small, poorly fitted or top-dose-only effect, or effect the other way; inactive = flat fitted curve, though single readings scatter. A potency beside an inconclusive call is a rough fit, not a confirmed value.
# Experiment: Nrf2 qHTS screen for inhibitors; note: nearly all actives have a fitted effect of over 60% in size
# Conditions: A549 ARE-Fluc reporter, luciferase luminescence, 18-24 h; series mostly up to 46 µM
# Procedure, shortened: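 Cells were seeded and rested 2 h, then exposed to compounds for 18-24 h. CellTiter-Fluor was read first as a viability measure. BugLite was added 15 min before the final luminescent read of ARE-luciferase activity in A549 cells.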
# Potency is the fitted concentration of half-maximal effect.
row,Structure (SMILES),Potency
1,Cn1c(=O)n(C/C=C/c2ccccc2)c(=O)c2c1nc1n2CCCN1c1ccc(F)cc1,"inconclusive: 20.6 µM [falling, single point]"
2,CSc1nnc(NC(=O)c2nc(S(=O)(=O)Cc3ccccc3)ncc2Cl)s1,"inconclusive: 29.1 µM [falling, single point]"
3,Cc1ccc2[nH]c(=O)c(CNC(C)(C)C)cc2c1,"inconclusive: 0.731 µM [falling, partial curve]"
4,N#C/C(=C\c1cn(-c2ccccc2)nc1-c1cccnc1)c1nnc2n1CCCCC2,active: 20.6 µM
5,CCOc1ccc(/C=C\C(C)=N\O)cc1,"inconclusive: 1.64 µM [activator, full curve]"
6,O=C(c1cc2ccccc2o1)N1CCN(Cc2ccc3c(c2)OCO3)CC1,"inconclusive: 16.4 µM [falling, single point]"
7,COC(=O)c1c(NS(=O)(=O)c2ccc(C)cc2)sc2c1CCC(C)C2 (stereo not drawn),"inconclusive: 14.1 µM [falling, partial curve]"
8,COc1ccccc1NC(=O)CN1C(=O)C2(SCC(=O)N2c2ccc(C)c(C)c2)c2ccccc21 (stereo not drawn),active: 20.6 µM
9,Cc1cc(NC(=O)CN(C)C)c([N+](=O)[O-])cc1C,"inconclusive: 18.4 µM [falling, single point]"
10,Cc1nc2ccc(NC(=S)NCCCO)cc2nc1C,"inconclusive: 29.1 µM [activator, single point]"
11,COc1ccc(Br)cc1CN(C)C(=O)C1=CC=CN2CCS(=O)(=O)N=C12,active: 16.4 µM
12,Cc1ccc(C)c(S(=O)(=O)NCc2ccc(C(=O)N3CCC(Cc4ccccc4)CC3)cc2)c1,active: 16.4 µM
13,COc1cc(C2c3cc4c(cc3C(OC3OC5COC(c6cccs6)OC5C(O)C3O)C3COC(=O)C23)OCO4)cc(OC)c1O (stereo not drawn),"inconclusive: 0.231 µM [falling, full curve, poor fit]"
14,O=C(c1ccc2c(Cl)c3c(nc2c1)CCCC3)N1CCN(c2ccc(F)cc2)CC1,"inconclusive: 0.82 µM [falling, partial curve, poor fit]"
15,CCOC(=O)c1sc(C)c2c1NC(C)(c1cccc3ccccc13)NC2=O (stereo not drawn),"inconclusive: 23.1 µM [activator, partial curve, poor fit]"
16,Nc1ccccc1C(=O)Nc1cccc2ccccc12,"inconclusive: 16.4 µM [activator, partial curve]"
17,COc1cccc(NC(=O)CSc2nnc(CNC(=O)c3ccccc3F)o2)c1,"inconclusive: 6.51 µM [activator, partial curve, poor fit]"
18,COc1ccc(NC(=O)CSCc2cnn(-c3ccccc3)c2-n2cccc2)cc1,"inconclusive: 29.1 µM [activator, single point]"
19,COC(=O)c1ccc(CNC(=O)CSc2nnc(COc3ccccc3)n2C)o1,inactive
20,CCOC(=O)Cc1ccc(NS(=O)(=O)c2ccc(SC)cc2)cc1,"inconclusive: 32.6 µM [falling, single point]"
21,Cc1cccn2c(=O)c3cc(S(=O)(=O)c4ccccc4)c(=N)n(Cc4cccnc4)c3nc12,"inconclusive: 23.1 µM [falling, partial curve]"

row,Structure (SMILES),Potency
1,Cc1ccc(N(C(=O)c2snc(C(N)=O)c2N)C(C(=O)NCCC(C)C)c2ccco2)cc1 (stereo not drawn),active: 23.1 µM
2,CC(=O)N1CCc2cc(S(=O)(=O)Nc3ccc(C)cc3)ccc21,"inconclusive: 20.6 µM [falling, single point]"
3,Cc1onc(-c2c(Cl)cccc2Cl)c1C(=O)c1c[nH]c(C(=O)NCC2CCCO2)c1 (stereo not drawn),"inconclusive: 25.9 µM [falling, partial curve, poor fit]"
4,CC(c1cccs1)N(Cc1ccco1)C(=O)Nc1ccc(Cl)c(Cl)c1 (stereo not drawn),"inconclusive: 32.6 µM [falling, single point]"
5,CCOC(=O)C1=C(C)Nc2nc(SCc3cccnc3)nn2C1c1ccc(OC)cc1 (stereo not drawn),"inconclusive: 29.1 µM [falling, single point]"
6,O=C(CC(=O)Nc1cccc(Cl)c1)N/N=C\c1ccccc1,"inconclusive: 23.1 µM [falling, partial curve, poor fit]"
7,COc1ccc2cc(C3=CCCCC3)ncc2c1,"inconclusive: 1.64 µM [activator, full curve]"
8,Cn1c(CC(=O)Nc2ccccc2F)nnc1SCC(=O)NC1CCCC1,"inconclusive: 23.1 µM [activator, partial curve, poor fit]"
9,CC1(c2ccccc2)CC(c2ccccc2)=Nc2ccccc2N1 (stereo not drawn),"inconclusive: 29.1 µM [activator, single point]"
10,CCOc1ccc2nc(NC(=O)CSCC(=O)Nc3cc(C)on3)sc2c1,"inconclusive: 1.84 µM [activator, full curve]"
11,C[n+]1cccc(/C=N/Nc2nc(Cl)c(C#N)c(Cl)c2Cl)c1,"inconclusive: 0.731 µM [activator, full curve, poor fit]"
12,CC(c1ccc(Cl)cc1)n1c(-c2ccc3ccccc3n2)n[nH]c1=S (stereo not drawn),active: 18.4 µM
13,Cc1cccc(OCc2nc(-c3ccc(Br)o3)no2)c1,"inconclusive: 14.6 µM [activator, partial curve, poor fit]"
14,O=C(CCNS(=O)(=O)c1ccccc1)OCC(=O)c1ccc(F)cc1,"inconclusive: 6.51 µM [activator, partial curve, poor fit]"
15,Cc1ccc(S(=O)(=O)Nc2ccc(N=Nc3ccc(O)cc3)cc2)cc1,inactive
16,CCc1ccc(Cc2cnc(NC(=O)c3ccc4c(c3)CC(c3ccccc3)OC4=O)s2)cc1 (stereo not drawn),"inconclusive: 4.11 µM [falling, full curve, poor fit]"
17,O=C(Nc1cccc(S(=O)(=O)N2CCCCC2)c1)Nc1ccc(Cl)cc1Cl,"inconclusive: 29.1 µM [falling, single point]"
18,CC(C)c1nc2n[nH]c(N)c2c2c1CCCC2,"inconclusive: 29.1 µM [falling, single point]"
19,Cc1cccc(C2CC(=O)Oc3c2c(=O)n(C)c2ccccc32)c1 (stereo not drawn),"inconclusive: 2.91 µM [activator, full curve, poor fit]"
20,CCOc1ccc(-c2[nH]ncc2Oc2cccc(OC)c2)c(O)c1,"inconclusive: 29.1 µM [falling, single point]"
21,CC(C)c1ccc(C2N=C(N)Nc3nc4ccccc4n32)cc1 (stereo not drawn),inactive

row,Structure (SMILES),Potency
1,CCC1CCC(C(=O)NC(CCSC)C(=O)NCCc2ccc(S(N)(=O)=O)cc2)CC1 (stereo not drawn),"inconclusive: 32.6 µM [falling, single point]"
2,Cc1noc(C)c1-c1ccc2ncnc(NCc3ccc(C(F)(F)F)o3)c2c1,"inconclusive: 13 µM [falling, partial curve, poor fit]"
3,Cc1c(Cl)c([N+](=O)[O-])nn1CCCC(=O)NC(C)c1ccccc1 (stereo not drawn),"inconclusive: 2.31 µM [falling, full curve]"
4,COC(=O)C1=C(C)N(c2ccccc2)C(=S)NC1c1ccccc1C(F)(F)F (stereo not drawn),"inconclusive: 25.9 µM [falling, partial curve, poor fit]"
5,CCOC(=O)CSC1=C(C#N)C(c2ccccc2OC)CC(=O)N1 (stereo not drawn),"inconclusive: 3.26 µM [falling, partial curve, poor fit]"
6,Cc1cc(C)c2sc(NNC(=O)c3ccc(S(=O)(=O)N4CCc5ccccc5C4)cc3)nc2c1,"inconclusive: 5.17 µM [falling, full curve, poor fit]"
7,C(=C\c1nc(N2CCCCCC2)c2ccccc2n1)/c1ccccc1,"inconclusive: 32.6 µM [falling, single point]"
8,Cc1c(C)n(C)c2ccc(C(=O)N3CCN(c4ccccc4)CC3)cc12,"inconclusive: 25.9 µM [activator, partial curve, poor fit]"
9,CSc1ncc(Cl)c(C(=O)N(Cc2ccc(N(C)C)cc2)Cc2ccco2)n1,"inconclusive: 25.9 µM [falling, single point]"
10,Cc1ccc(C(=O)N2CCN(c3cccc(C)c3C)CC2)o1,"inconclusive: 25.9 µM [falling, single point]"
11,O=C1C=C(c2cc(C(F)(F)F)cc(C(F)(F)F)c2)C[C@@H](c2ccc(Cl)cc2)C1,"inconclusive: 29.1 µM [falling, single point]"
12,O=C(NNC1OC(CO)C(O)C(O)C1O)c1cccc(Br)c1 (stereo not drawn),"inconclusive: 6.51 µM [falling, single point]"
13,O=C(Oc1c(CN2CCOCC2)cc(Cl)c2cccnc12)c1ccccc1F,inactive
14,CCCCOc1ccc(CNC(=O)CCCN2C(=O)CSc3c2c(C)nn3-c2ccccc2)cc1,active: 29.1 µM
15,Cc1ccc2c(=O)cc(C(=O)Nc3ccc(S(=O)(=O)N4CCCCCC4)cc3)oc2c1C,inactive
16,CCC(C)(C)C1CCc2[nH]nc(C(=O)NCCNC(=O)OC(C)(C)C)c2C1 (stereo not drawn),"inconclusive: 20.6 µM [falling, partial curve]"
17,CCOC(=O)c1c(NC(C)=O)c2c3c(sc2n1Cc1nc(-c2ccccc2C)oc1C)CCCC3,"inconclusive: 20.6 µM [activator, partial curve, poor fit]"
18,O=C(Nc1nc2ccc(F)cc2s1)c1nc(S(=O)(=O)Cc2ccccc2)ncc1Cl,"inconclusive: 29.1 µM [falling, single point]"
19,CC1CCc2c(sc3nc(C(C)(C)C)nc(N4CCN(C(=O)CCl)CC4)c23)C1 (stereo not drawn),inactive
20,Cc1ccc2[nH]c(CCN(C)C)c(CN3CCOCC3)c2c1,"inconclusive: 25.9 µM [falling, partial curve, poor fit]"
21,CC1CN(C(=O)CCC(=O)NCc2ccc(F)cc2)c2cc(Cl)ccc2O1 (stereo not drawn),"inconclusive: 8.2 µM [falling, partial curve, poor fit]"

# Part of the list above in order of length of the SMILES, ascending:
row,Structure (SMILES),Potency
12,O=C(NNC1OC(CO)C(O)C(O)C1O)c1cccc(Br)c1 (stereo not drawn),"inconclusive: 6.51 µM [falling, single point]"
5,CCOC(=O)CSC1=C(C#N)C(c2ccccc2OC)CC(=O)N1 (stereo not drawn),"inconclusive: 3.26 µM [falling, partial curve, poor fit]"
8,Cc1c(C)n(C)c2ccc(C(=O)N3CCN(c4ccccc4)CC3)cc12,"inconclusive: 25.9 µM [activator, partial curve, poor fit]"
9,CSc1ncc(Cl)c(C(=O)N(Cc2ccc(N(C)C)cc2)Cc2ccco2)n1,"inconclusive: 25.9 µM [falling, single point]"
